PubChem BioAssay AID652243 – Drosophila RNAi Screening Center – 2013
Aim: 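Fly genes required for human androgen receptor driven transcription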 (primary screen). Cells: Drosophila S2R+ cells. Reagent: long dsRNA against Drosophila genes. Timing: 72 h (48 h, then 24 h hormone). Conditions: synthetic androgen R1881 at 10 nM for 24 h. Read-out: 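Per-well raw luminescence of the androgen-driven firefly reporter and of the Renilla control, two replicates each, without normalisation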. Scale: firefly reporter light: higher = more light from androgen-responsive reporter; Renilla control light: higher = more constitutive control signal (cell number, transfection). Active means: 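Across duplicate plates, a knock-down whose log firefly/Renilla ratio shifted a set fold down or up from the GFP/LacZ control mean was a hit; the downward cut appears as both 1.5 and 3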. Calls: active = hit: reporter lowered or raised; inactive = no hit.
The deposit covers about 24,000 reagents; below is an unselected part of those that have a named target and a result. In the full data, 246 (1%) got an active call. 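Plates not normalised; calls are printed but the firefly/Renilla ratio behind them is not deposited; fold cut for lowering reported inconsistently.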 The raw values are shown without normalisation. Names joined by + are all predicted targets of the reagent. The record does not give: the amount of reagent.

target gene | DRSC id | firefly reporter light, replicate 1 | firefly reporter light, replicate 2 | Renilla control light, replicate 1 | Renilla control light, replicate 2 | call
MagR (GeneID 32513) | DRSC20092 | 2.85e5 | 2.28e5 | 2.61e6 | 1.52e6 | inactive
step (GeneID 35425) | DRSC03694 | 3.24e5 | 4.12e5 | 1.76e6 | 2.20e6 | inactive
step (GeneID 35425) | DRSC03699 | 1.94e5 | 1.78e5 | 2.18e6 | 1.55e6 | inactive
Best1 (GeneID 53431) | DRSC16909 | 6.93e5 | 7.34e5 | 2.67e6 | 1.79e6 | inactive
Best1 (GeneID 53431) | DRSC26475 | 2.87e5 | 1.78e5 | 3.87e5 | 2.93e5 | inactive
CG15577 (GeneID 50378) | DRSC18065 | 3.68e5 | 3.19e5 | 3.81e6 | 3.69e6 | inactive
CG3594 (GeneID 37964) | DRSC04393 | 5.41e5 | 6.00e5 | 8.46e5 | 1.37e6 | inactive
CG3594 (GeneID 37964) | DRSC21959 | 4.25e5 | 4.43e5 | 1.25e6 | 9.74e5 | inactive
frma (GeneID 31464) | DRSC18297 | 59409 | 46236 | 4.10e5 | 4.26e5 | inactive
frma (GeneID 31464) | DRSC27843 | 1.40e6 | 9.19e5 | 4.09e6 | 1.76e6 | inactive
CG15927 (GeneID 32193) | DRSC19742 | 2.16e5 | 2.08e5 | 3.77e6 | 3.66e6 | inactive
CG15927 (GeneID 32193) | DRSC28678 | 5.07e5 | 5.28e5 | 1.68e6 | 1.31e6 | inactive
CG4953 (GeneID 34373) | DRSC02792 | 9.50e5 | 4.22e5 | 1.70e6 | 1.18e6 | inactive
Usp47 (GeneID 38644) | DRSC11313 | 7.86e5 | 6.19e5 | 1.44e6 | 8.97e5 | inactive
wap (GeneID 33131) | DRSC20626 | 76378 | 78737 | 5.61e5 | 5.76e5 | inactive
scramb2 (GeneID 38362) | DRSC08543 | 1.39e5 | 79885 | 2.26e6 | 1.61e6 | inactive
scramb2 (GeneID 38362) | DRSC26609 | 2.90e5 | 2.48e5 | 6.50e5 | 5.50e5 | inactive
CG7367 (GeneID 34094) | DRSC03049 | 1.31e5 | 1.61e5 | 1.43e6 | 1.50e6 | inactive
CG7367 (GeneID 34094) | DRSC28024 | 7.47e5 | 1.04e6 | 1.43e6 | 2.03e6 | inactive
CG5342 (GeneID 41389) | DRSC15776 | 98204 | 93324 | 1.27e6 | 1.10e6 | inactive
CG14752 (GeneID 35840) | DRSC06488 | 3.65e5 | 3.85e5 | 2.08e6 | 2.35e6 | inactive
CG13728 (GeneID 39937) | DRSC10056 | 2.14e5 | 1.63e5 | 1.81e6 | 1.96e6 | inactive
ND-MWFE (GeneID 5740593) | DRSC06364 | 3.07e5 | 2.16e5 | 2.27e6 | 2.06e6 | active
Spt3 (GeneID 41461) | DRSC15465 | 1.16e5 | 1.02e5 | 1.81e6 | 1.32e6 | inactive
Spt3 (GeneID 41461) | DRSC25502 | 2.88e5 | 2.31e5 | 7.11e5 | 5.19e5 | inactive
CG7916 (GeneID 34800) | DRSC01901 | 1.95e5 | 2.32e5 | 1.13e6 | 1.66e6 | inactive

Continued, starting with the last 2 of the part before.
target gene | DRSC id | firefly reporter light, replicate 1 | firefly reporter light, replicate 2 | Renilla control light, replicate 1 | Renilla control light, replicate 2 | call
Spt3 (GeneID 41461) | DRSC25502 | 2.88e5 | 2.31e5 | 7.11e5 | 5.19e5 | inactive
CG7916 (GeneID 34800) | DRSC01901 | 1.95e5 | 2.32e5 | 1.13e6 | 1.66e6 | inactive
CG32568 (GeneID 32659) | DRSC19913 | 7.60e5 | 4.94e5 | 3.19e6 | 2.65e6 | inactive
CG32568 (GeneID 32659) | DRSC36988 | – | – | – | – | inactive
CG33644 (GeneID 3772563) | DRSC37862 | 5.45e5 | 5.92e5 | 7.32e5 | 1.18e6 | inactive
CG13405 (GeneID 38016) | DRSC08310 | 1.03e5 | 1.13e5 | 1.51e6 | 1.60e6 | inactive
CG13405 (GeneID 38016) | DRSC27289 | 6.26e5 | 6.10e5 | 7.27e5 | 8.62e5 | inactive
Gr59f (GeneID 37726) | DRSC04499 | 2.71e5 | 3.55e5 | 1.40e6 | 1.47e6 | inactive
Gr59f (GeneID 37726) | DRSC27044 | 4.10e5 | 3.25e5 | 8.25e5 | 6.00e5 | inactive
Gad1 (GeneID 38484) | DRSC08661 | 7.15e5 | 3.48e5 | 1.46e6 | 1.06e6 | inactive
Gad1 (GeneID 38484) | DRSC27052 | 2.72e5 | 2.07e5 | 7.39e5 | 5.40e5 | inactive
CG13950 (GeneID 33267) | DRSC00368 | 71298 | 1.17e5 | 8.17e5 | 1.02e6 | inactive
CG13950 (GeneID 33267) | DRSC27405 | 2.15e5 | 3.32e5 | 5.86e5 | 5.76e5 | inactive
Or7a (GeneID 31750) | DRSC18691 | 2.88e5 | 4.45e5 | 2.22e6 | 3.83e6 | inactive
sky (GeneID 35359) | DRSC02383 | 1.74e6 | 1.20e6 | 2.60e6 | 1.36e6 | inactive
sky (GeneID 35359) | DRSC03214 | 1.22e6 | 9.13e5 | 3.35e6 | 2.77e6 | inactive
sky (GeneID 35359) | DRSC03215 | 2.85e5 | 3.16e5 | 2.45e6 | 2.60e6 | inactive
CG8135 + BBIP1 | DRSC12739 | 2.20e5 | 1.64e5 | 3.58e5 | 2.24e5 | inactive
CG8135 + BBIP1 | DRSC16384 | 94025 | 1.21e5 | 1.73e6 | 2.06e6 | inactive
CG8135 + BBIP1 | DRSC26052 | 2.64e5 | 2.57e5 | 8.21e5 | 5.53e5 | inactive
kek3 (GeneID 34912) | DRSC03553 | 3.81e5 | 3.27e5 | 2.71e6 | 2.08e6 | inactive
kek3 (GeneID 34912) | DRSC22830 | 5.42e5 | 1.18e6 | 8.63e5 | 1.41e6 | inactive
kek3 (GeneID 34912) | DRSC24250 | 3.20e5 | 3.78e5 | 4.13e5 | 5.04e5 | inactive
CG15446 (GeneID 33088) | DRSC20518 | 1.18e5 | 1.05e5 | 3.57e5 | 2.98e5 | inactive
Pex11ab (GeneID 36758) | DRSC07145 | 36713 | 74410 | 1.06e6 | 1.06e6 | inactive
CG2124 (GeneID 31989) | DRSC18208 | 4.08e5 | 3.50e5 | 2.25e6 | 2.30e6 | inactive
CG9795 (GeneID 40545) | DRSC12336 | 35678 | 23837 | 3.80e5 | 3.38e5 | inactive
CG9795 (GeneID 40545) | DRSC24244 | 6.77e5 | 8.79e5 | 6.84e5 | 9.69e5 | inactive
sno (GeneID 32273) | DRSC20378 | 2.32e5 | 2.45e5 | 7.86e5 | 8.56e5 | inactive
Rab10 (GeneID 33025) | DRSC20572 | 4.42e5 | 1.71e5 | 1.34e6 | 5.43e5 | inactive
Rab10 (GeneID 33025) | DRSC25270 | 4.27e5 | 3.40e5 | 4.12e5 | 4.46e5 | inactive
TpnC47D (GeneID 36195) | DRSC07564 | 2.36e5 | 2.15e5 | 1.43e6 | 1.16e6 | inactive
Iswi (GeneID 36390) | DRSC07446 | 3.88e5 | 3.28e5 | 1.22e6 | 9.39e5 | inactive
Iswi (GeneID 36390) | DRSC26047 | 3.27e5 | 3.43e5 | 5.55e5 | 6.18e5 | inactive
